Assay results: patent publication US20170007669A1, “PEPTIDE-MEDIATED DELIVERY OF ACTIVE AGENTS ACROSS THE BLOOD-BRAIN BARRIER” (Mayo Foundation for Medical Education and Research, priority 2015, published 2017)
At least one peptide structure holds a part that was inferred or is arguable (an end, a ring closure or a residue). Where no end group is shown, it is not given here.

Tests used:
blood-brain barrier [1] = assay: Transportation of Evan's Blue (EB) dye across the BBB after IV injection of peptide; assay type: in vivo, mouse; conditions: for EB dye in brain: EB 10 min later, brain collected 1 h after EB
Method: To explore whether K16ApoE (SEQ. ID. NO: 42) compromises integrity of the BBB, the peptide was first injected by IV followed by injection of Evan's Blue (EB; a routinely used small molecule blue dye with a molecular weight of 960.81) by IV into the femoral vein of a mouse. Cardiac perfusion was performed and the brains of the mice were removed and evaluated approximately 2 hours following injection of the dye. As controls, a peptide consisting of 16 lysine residues (K16) and a 20-amino acid peptide comprising the LDLR-binding domain of ApoE (ApoE-FITC; (SEQ ID NO:13)), were used. The particulars of each administration are as follows: • 1) 67.5 nanomoles of K16 injected first, then ˜40 μL 2% EB was injected. • 2) Same as 1 but K16 and EB mixed prior to injection. • 3) 67.5 nanomoles of ApoE-FITC injected first, then ˜40 μL 2% EB was injected. • 4) Same as 3 but ApoE-FITC peptide and EB was mixed prior to injection. • 5) 67.5 nanomoles of K16ApoE injected first, then ˜40 μL 2% EB was injected. • 6) Same as 5 but K16ApoE peptide and EB was mixed first before injection.
Using the method described in Example 1, various amounts of K16ApoE (SEQ. ID. NO: 42) was injected followed by administration of ˜40 μL 2% EB. The particulars of each administration are as follows: • 1) EB alone. • 2) 50 μg (11.25 nanomoles) K16ApoE first, followed by administration of EB. • 3) 100 μg (22.5 nanomoles) K16ApoE first, followed by administration of EB. • 4) 200 μg (45 nanomoles) K16ApoE first, followed by administration of EB. • 5) 300 μg (67.5 nanomoles) K16ApoE first, followed by administration of EB.
˜40 μL of 2% EB was injected 10 min after injection of various amounts of K16ApoE (75 μg, 100 μg, 150 μg, 250 μg, and 300 μg) or K26ApoE (25 μg, 50 μg, 75 μg, 100 μg, 125 μg, and 150 μg). K26ApoE (SEQ ID NO: 139) having the sequence:
Brain tissue as was collected 1 h following EB injection. All injections were at the femoral vein.

blood-brain barrier [2] = assay: Transportation of dyes of various molecular weights across the BBB after K16ApoE or K16ApoE+IgG; assay type: in vivo, mouse
blood-brain barrier [3] = assay: Length of time of BBB opening following administration of peptide; assay type: in vivo, mice
[4] = Tissue distribution of Evans Blue (EB) after delivery via K16ApoE; assay type: in vivo, mice; conditions: 0, 25, 50, 75, 100, 150 μg K16ApoE tested
Method: Mice were injected with various amounts of K16ApoE peptide (0 μg, 150 μg, 100 μg, 75 μg, 50 μg, 25 and μg) first. EB (40 μL of a 2% solution was injected 10 min after injection of the peptide. Tissues (brains, lungs, heart, liver, spleen and kidney) were collected 1 h after EB delivery. All injections were through the femoral vein.

blood-brain barrier [5] = conditions: from Sarkar et al. 2011 PLoS ONE 6:e28881; cited from earlier work

## KKKKKKKKKKKKKKKKLRVRLASHLRKLRKRLLRDA [K16ApoE, KKKKKKKKKKKKKKKKLRVRLASHLRKLRKRLLRDA]
blood-brain barrier [1]; 75 μg peptide
  EB dye in brain: no dye was observed
blood-brain barrier [1]; 100 μg peptide
  EB dye in brain: only a small amount of dye present
blood-brain barrier [1]; 150 μg peptide and above
  EB dye in brain: Increasing EB is observed
blood-brain barrier [1]; 50, 100, 200, 300 μg K16ApoE first, then ~40 μL 2% EB
  amount of K16ApoE from which EB dye is observed in the brain: ≥ 100 µg
blood-brain barrier [1]; 50-300 μg K16ApoE first, then ~40 μL 2% EB
  brain uptake of EB as a function of amount of K16ApoE injected: increased brain uptake of EB is achieved with each higher dose
blood-brain barrier [1]; 67.5 nanomoles peptide IV injected first, then ~40 μL 2% EB, brains evaluated ~2 hours after dye
  EB dye transport across the BBB to the brain (blue coloring): crosses the BBB and is transported to the brain
blood-brain barrier [2]; 300 μg K16ApoE (or 300 μg K16ApoE+300 μg IgG) injected first, then dye ~40 μL 2%
  transport of dyes (EB, Crocein Scarlet, Light green SF) to the brain: allowed transport of molecules of various sizes to the brain
blood-brain barrier [2]; 300 μg K16ApoE mixed with dye prior to injection
  transport of dyes (EB, Crocein Scarlet, Light green SF) to the brain: does not appear to cross the BBB
blood-brain barrier [3]; EB injected 5 min, 10 min, 30 min after 300 μg K16ApoE
  EB dye in brain: observed
blood-brain barrier [3]; EB injected 1 h and 2 h after 300 μg K16ApoE
  EB dye in brain: decreased intensity of dye observed
blood-brain barrier [3]; EB injected 4 h after 300 μg K16ApoE
  EB dye in brain: little to no EB dye remaining
[4]
  amount of peptide giving best EB entry into brain: 150 µg
blood-brain barrier [5]
  blood-brain barrier transport capability (delivery of beta-galactosidase): demonstrates blood-brain barrier transport capability
